Test results reported in article PMC4150764, “Structural and functional basis of transcriptional regulation by TetR family protein CprB from S. coelicolor A3(2)” (Nucleic Acids Research, 2014).

Experiments:
Assay in all cases: EMSA
[1] = biological target: T1, CprB K43A (Streptomyces coelicolor A3(2)) (UniProt Q7AKF2); details: almost no effect; EMSA: 10 mM Tris-HCl pH 7.8, 50 mM KCl, 1 mM EDTA, 1 mM DTT, 5% glycerol, hemoglobin, poly(dI-dC), 20 C, ~1 nM DNA; recombinant protein; residues 1-215; label: 5'-32P
T1 sequence (looked up): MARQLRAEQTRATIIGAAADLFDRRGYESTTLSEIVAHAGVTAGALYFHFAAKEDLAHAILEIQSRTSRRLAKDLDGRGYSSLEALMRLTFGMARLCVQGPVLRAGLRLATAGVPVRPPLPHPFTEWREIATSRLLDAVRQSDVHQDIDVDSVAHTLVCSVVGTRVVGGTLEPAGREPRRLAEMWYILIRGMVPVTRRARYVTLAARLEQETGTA

[2] = biological target: T2, CprB T31A (Streptomyces coelicolor A3(2)) (UniProt Q7AKF2); details: almost no effect, EMSA: 10 mM Tris-HCl pH 7.8, 50 mM KCl, 1 mM EDTA, 1 mM DTT, 5% glycerol, hemoglobin, poly(dI-dC), 20 C, ~1 nM DNA, recombinant protein, residues 1-215
T2 sequence (looked up): T1 sequence (looked up) with T31A, A43K

[3] = biological target: T3, CprB Y47A (Streptomyces coelicolor A3(2)) (UniProt Q7AKF2); details: almost no effect, EMSA: 10 mM Tris-HCl pH 7.8, 50 mM KCl, 1 mM EDTA, 1 mM DTT, 5% glycerol, hemoglobin, poly(dI-dC), 20 C, ~1 nM DNA, recombinant protein, residues 1-215
T3 sequence (looked up): T1 sequence (looked up) with A43K, Y47A

[4] = biological target: T4, CprB F48A (Streptomyces coelicolor A3(2)) (UniProt Q7AKF2); details: almost no effect, EMSA: 10 mM Tris-HCl pH 7.8, 50 mM KCl, 1 mM EDTA, 1 mM DTT, 5% glycerol, hemoglobin, poly(dI-dC), 20 C, ~1 nM DNA, recombinant protein, residues 1-215
T4 sequence (looked up): T1 sequence (looked up) with A43K, F48A

[5] = biological target: T5, CprB S33A (Streptomyces coelicolor A3(2)) (UniProt Q7AKF2); details: almost no effect; EMSA: 10 mM Tris-HCl pH 7.8, 50 mM KCl, 1 mM EDTA, 1 mM DTT, 5% glycerol, hemoglobin, poly(dI-dC), 20 C, ~1 nM DNA; recombinant protein; residues 1-215; label: 5'-32P
T5 sequence (looked up): T1 sequence (looked up) with S33A, A43K

[6] = biological target: T6, CprB S33A K43A (Streptomyces coelicolor A3(2)) (UniProt Q7AKF2); details: drastic decrease; EMSA: 10 mM Tris-HCl pH 7.8, 50 mM KCl, 1 mM EDTA, 1 mM DTT, 5% glycerol, hemoglobin, poly(dI-dC), 20 C, ~1 nM DNA; recombinant protein; residues 1-215; label: 5'-32P (EMSA), none (ITC)
T6 sequence (looked up): T1 sequence (looked up) with S33A

[7] = label: 5'-32P (EMSA), none (ITC)

Sequence	binding result [1]	binding result ([2]; label: 5'-32P)	binding result ([3]; label: 5'-32P)	binding result ([4]; label: 5'-32P)	binding result [5]	binding result [2, 7]	binding result [3, 7]	binding result [6]	binding result [4, 7]
AACAGGCACACGGTCTGTTGGTTCT (double strand) [cprA upstream 25-mer (-44 to -20 of cprA-ATG)]	binds	binds	binds	binds	binds				
AGGCAGGCGGCACGGTCTGTTGAGTTC (double strand) [OPB 27-mer (-47 to -21 of cprB-ATG)]						binds	binds	binds more weakly	binds

Substitutions are numbered along the chain they refer to. For part of these data: The comparison behind a weaker result is the experiment's own reference, which may not be listed here. Protein sequences can lack the tags named with them. For part of these data: Construct, isoform or probe ends are uncertain for at least one entry. For part of these data: At least one verdict was read from the data and is not stated in words by the source.
